In one data set the test system is normal ICR mice. As to the kind of experiment: oral glucose tolerance test in normal ICR mice. The note with it: 20 mg/kg by gavage 30 min before glucose 2 g/kg, AUC 0-120 min.
The nature of data set [1]: pharmacokinetic study in ICR mice. The note with it: male, mouse, in vivo, po, 10 mg/kg.
A further data set has as its system DIO mice. Put plainly: anti-hyperglycemic effects (OGTT, insulin) in diet-induced obese (DIO) mice. It is filed as in vivo, C57BL/6 mice. The settings on record: 30 mg/kg oral 30 min before glucose 2 g/kg, AUC -30 to 120 min. The procedure:
During the experimental period, plasma insulin levels were measured 30 min after glucose administration using an insulin ELISA Kit.
Plasma insulin levels were measured using a mouse insulin RIA kit 30 min after oral glucose loading (Beijing North Institute of Biological Technology, Beijing, China).

For orientation: AUC means the area under the concentration-time curve, a measure of exposure. A high value points to more exposure. For orientation: Cmax means the peak of the concentration-time curve. As a reminder, the half-life is how long it takes for the measured level to halve. Low values mean fast loss, high ones slow loss.

On to `Cc1ccc(-c2ccc(F)cc2COc2ccc(CCC(=O)O)cc2)cc1` [TUG-891, reference compound], for which the “reduction of blood glucose AUC versus vehicle-treated group” value in the data set on normal ICR mice was 22.4%. In data set [1], this compound gave an AUC of 2400 ± 250 ng·h/mL, a Cmax of 1240 ± 170 ng/mL and a half-life of 44.4 ± 17.4 min. Also, in the data set on DIO mice, the “reduction of blood glucose AUC versus vehicle-treated group” value amounted to 16.5%.

The record behind these values is article PMC11547093, “Novel Phenoxyalkanoic Acid Derivatives as Free Fatty Acid Receptor 4 Agonists for Treating Type 2 Diabetes Mellitus” (International Journal of Molecular Sciences, 2024).
